Assay results reported in US20180369334A1 (Stanford University, published 2018).
No constants are given. Whether binding was seen depends on the method and setting. Some entries that bind do so weakly or less than the wild type.

Chains of the proteins cited; added tags and fusions are not shown. Residues count along the entry.
UniProt P17948, residues 27-1338: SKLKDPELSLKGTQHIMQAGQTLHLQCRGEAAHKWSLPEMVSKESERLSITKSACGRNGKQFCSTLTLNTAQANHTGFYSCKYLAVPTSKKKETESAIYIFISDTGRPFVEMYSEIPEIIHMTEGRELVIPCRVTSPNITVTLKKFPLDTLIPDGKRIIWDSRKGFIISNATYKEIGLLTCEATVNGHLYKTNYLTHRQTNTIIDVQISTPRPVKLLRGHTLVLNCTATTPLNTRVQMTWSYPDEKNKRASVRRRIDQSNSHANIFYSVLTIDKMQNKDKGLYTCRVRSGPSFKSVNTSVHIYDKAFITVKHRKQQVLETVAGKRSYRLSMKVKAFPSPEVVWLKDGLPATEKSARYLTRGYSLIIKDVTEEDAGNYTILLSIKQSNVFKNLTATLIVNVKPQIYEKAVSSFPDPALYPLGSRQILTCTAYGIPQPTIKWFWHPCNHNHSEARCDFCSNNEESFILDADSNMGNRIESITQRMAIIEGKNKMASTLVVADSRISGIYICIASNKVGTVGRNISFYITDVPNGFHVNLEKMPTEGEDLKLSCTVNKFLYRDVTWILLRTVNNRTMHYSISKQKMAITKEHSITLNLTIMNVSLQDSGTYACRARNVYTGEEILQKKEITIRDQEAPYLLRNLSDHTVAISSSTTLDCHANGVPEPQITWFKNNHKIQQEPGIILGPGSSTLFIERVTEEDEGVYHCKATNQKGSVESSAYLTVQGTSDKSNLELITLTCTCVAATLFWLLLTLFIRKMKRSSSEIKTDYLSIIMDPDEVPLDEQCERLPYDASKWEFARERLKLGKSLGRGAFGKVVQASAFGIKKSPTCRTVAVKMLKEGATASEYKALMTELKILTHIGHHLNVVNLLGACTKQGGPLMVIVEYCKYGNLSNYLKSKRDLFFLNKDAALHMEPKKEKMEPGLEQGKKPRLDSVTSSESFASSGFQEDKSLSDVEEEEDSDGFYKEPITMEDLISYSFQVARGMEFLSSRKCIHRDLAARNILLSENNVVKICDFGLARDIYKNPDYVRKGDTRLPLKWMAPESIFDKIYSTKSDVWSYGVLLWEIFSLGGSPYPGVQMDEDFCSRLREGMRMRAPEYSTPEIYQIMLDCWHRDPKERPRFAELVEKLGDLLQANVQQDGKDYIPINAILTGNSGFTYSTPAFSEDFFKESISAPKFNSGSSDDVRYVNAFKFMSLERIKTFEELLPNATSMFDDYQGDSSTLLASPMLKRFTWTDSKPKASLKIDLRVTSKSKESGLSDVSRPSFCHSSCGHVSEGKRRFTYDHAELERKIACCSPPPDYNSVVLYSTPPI

Molecular target: VEGFR1 (on PAE-VEGFR1 cells) (UniProt P17948)
Assay: binding to PAE-VEGFR1 cells

binding: binds
B1: scVEGFMUT-E (mE, SEQ ID NO.: 55) (ligand)
chain: EVVKAMDVYQRSYCHPIETLVDILQEYPDEIGYIFKPSCVPLMRCGGCCNGAGLECVPTEESNITMQIMRIKPHRGQHIGEMSFLQHNKCECRPKKDGSTSGSGKSSEGKGEVVRFMDVYQRSYCHPIETLVDIFQEYPNEIEYAFKPSCVPLMRCGGCCNNEGLECVPTEESNITMQIMRAKPHQGQHIGEMSFLQHNKCECRPKKD
notes: Chain 1: F36L, E44G, D63G, Q87R; also called scVEGFmE
